Test results as given in PubChem BioAssay AID595 (National Center for Advancing Translational Sciences (NCATS), 2007).
“And” between values parts separate entries of the source, which are not always exact repeats. Equal entries are not always repeated. The whole screen tested about 71,000 compounds, of which about 310 (0.44%) were called active. Inconclusive results, whose numbers are uncertain, are shown with a selection of clear calls. The call rests on the fitted dose curve; in most records, active means well fitted curve in either direction with a large enough effect; inconclusive means small, poorly fitted or top-dose-only effect, or another doubt; inactive means flat fitted curve, though single readings scatter. A potency beside an inconclusive call is a rough fit, not a confirmed value.
On the % scale 0 is the no-effect control and ±100 the full control effect; potency means the concentration at half of the fitted maximal effect.

The compounds below were run on Hsp90 C-terminal peptide / TPR2A (Hop) interaction, human (assay: qHTS Assay for Disrupters of an Hsp90 Co-Chaperone Interaction). Conditions: AlphaScreen TPR2A-His6 binding biotin-Hsp90 C-terminal peptide; activity change, negative = inhibition: at 57 µM (top of the series) unless noted.
Text: NIH Chemical Genomics Center [NCGC]
NIH Molecular Libraries Screening Centers Network [MLSCN]
Hsp90 (heat shock protein 90) is the essential molecular chaperone and it accounts for 1-2% of all cytosolic proteins and is critical for the activity of diverse cellular proteins that are involved in a variety of cellular processes, including development, cell cycle, and steroid hormone signaling. Its client proteins include signaling kinases such as IGF1R, Akt, v-Src, Raf-1; regulators of cell survival such as Bcr-Abl; and transcription factors such as mutated p53, estrogen and progesterone receptors. Hsp90 has emerged as an important target for cancer treatment due to its essential role in maintaining transformation and regulating the function of oncogenic signaling proteins.
The in vivo function of Hsp90 is regulated by the binding and hydrolysis of ATP at its N-terminal. Geldanamycin binds to ATP site and inhibit Hsp90 function. Geldanamycin and its analogues are under clinical trials in cancer patients.
This domain contains the binding site for tetratricopeptide repeat (TPR) domains on HOP (Hsp Organizing Protein). TPR is a structural motif used by a significant number of cochaperones by which the in vivo function of Hsp90 is regulated. TPR2A on HOP binds specifically to MEEVD motif of the C-terminal of Hsp90.
A homogeneous AlphaScreen is developed to assess the interaction between TPR2A and MEEVD motif of the C-terminal of Hsp90 by using the isolated TPR2A domain and a synthesized 20mer Hsp90 C terminal peptide. AlphaScreen is two bead-based proximity-dependent chemical energy transfer luminescent assay platform. TPR2A-His-6 and biotinylated Hsp90 C terminal peptide will bring streptavidin donor beads and nickel chelate acceptor beads to a proximity range (less than 200 nm), and subsequently lead a chemical luminescent reaction upon exciting donor beads with 680 nm laser. Inhibition of TPR2A and MEEVD motif interaction by small molecules could attenuate or abolish this chemical luminescent reaction.
Counter screening: Biotinylated-His-6 (PerkinElmer) can be utilized as a counter screen, as it serves as a linker to bring streptavidin beads and nickel chelate beads together. The counter screen can exclude alpha screen platform false positives due to small molecules being metal chelators, biotin analogues and imidazole analogues, or due to interfering with oxygen release from donor beads. Such an assay should be utilized to qualify any activity observed in this screen.
NCGC Assay Protocol Summary:
The assay was performed on 1536-well white plate (untreated solid bottom). Liquids were dispensed by 1536-well plate washer (Kalypsys, San Diego, CA). Plates were read on EnVision (PerkinElmer, Boston, MA).TPR2A-His6 was produced using a bacteria expression system and purified using a well developed method (Ghosh et al., 2000). Hsp90 C terminal 20-mer peptide with or without an N-terminal biotin group are synthesized using automated solid phase synthesis by the Yale Keck facility. The composition of assay buffer was (in mM) 25 HEPES, 100 KCl, 2 MgCl2 and 2 DTT; 0.1% BSA and 0.01% Tween-20. TPR2A-His6 binding to biotin-Hsp90 will bring streptavidin donor beads and nickel chelate acceptor beads (PerkinElmer) together and can be measured by Alpha reading by EnVision (PerkinElmer). Free Hsp90 blocks biotin-Hsp90 binding to TPR2 and serves as a positive control in the current asssay.
The assay was performed at room temperature. All compounds were screened as titrations from […] to 46 uM final concentration. The assay was performed in 1536-well format plates (untreated white solid bottom, Corning Inc.) as follows:
Sequence,Parameter,Value,Description
1,Reagent,3 uL TPR2A-His6,Final concentration was 5nM
2,Compound,23 nL,Final titration was from 0.7 nM to 46 uM
3,Time,15 minutes,Room temperature
4,Reagent,1 uL biotin-Hsp90,With and without free Hsp90. Final concentration was 10 nM for biotin-Hsp90 and 10uM for free Hsp90.
5,Time,1 hour,Room temperature
[…]
COc1ccc(-c2nc3cnc(N(C)C)nc3n(CCc3ccccc3)c2=O)cc1 was tested, and the Potency was active: 0.631 µM [activator]. In the case of O=C(COc1ccc(Cl)cc1)NCc1nnc(SCC(=O)Nc2ccc3c(c2)OCCO3)o1, the activity change, negative = inhibition is reported as inconclusive: 51.9%. CCCCCC(=O)Nc1ccccc1N1CCN(c2ccccc2)CC1 was tested, and the activity change, negative = inhibition was inconclusive: 32.2%. With CC1(C)C(=O)C(c2ccccc2)=C2CN3C(=O)N(CCc4ccccc4)C(=O)C3(Cc3ccccc3)C=C21 (centres undefined) the activity change, negative = inhibition was inconclusive: 73.4%. For CC(C)(C)c1ccc(O)c(CN(Cc2cc(C(C)(C)C)ccc2O)C2CCCCC2)c1, the activity change, negative = inhibition was inconclusive: 87.6% [at 11 µM]. CCCCCCCCCCCCCCCC(=O)NC(C)C was tested, and the activity change, negative = inhibition was inconclusive: 62.7%. In the case of COc1ccc(CNc2ncnc3ccc(-c4ccc(N(C)C)cc4)cc23)c(OC)c1, the Potency is reported as inconclusive: 31.6 µM [inhibitor, single point]. C#CCCCC(=S)Nc1ccccc1 was tested, and the activity change, negative = inhibition was inconclusive: 53.3%. With COc1cccc(Cn2c(=O)c(CCc3ccccc3)nc3cnc(N(C)C)nc32)c1 the Potency was inconclusive: 20 µM [activator, single point]. In the case of CCn1c(=O)c2c(n3cnnc13)-c1ccccc1CC21CCCCC1, the “activity change, negative = inhibition” value is reported as inactive: -1.75%. O=C(CCc1nc(-c2cccs2)no1)Nc1cnc2ccccc2c1 was tested, and the activity change, negative = inhibition was inconclusive: 42.2%. In the case of Oc1ccc(CNCc2ccccc2)c2cccnc12, the Potency is reported as inconclusive: 3.16 µM [inhibitor, partial curve]. With CCCCCCCCCCCCC/C=C\[C@@H](O)[C@H](CO)NC(C)=O the “activity change, negative = inhibition” value was inactive: 1.49%. Cc1ccnc(N2CCCC(C(=O)Nc3nnc(C)s3)C2)n1 (centres undefined) was tested, and the “activity change, negative = inhibition” value was inactive: 0.144%. With O=C(NC1=NCCS1)c1ccc(-c2ccc(Cl)cc2)o1 the “activity change, negative = inhibition” value was inactive: -10.9%. With O=C1c2ccccc2C(=O)N1CC1c2ccccc2CCN1S(=O)(=O)c1cnc[nH]1 (centres undefined) the activity change, negative = inhibition was inconclusive: 43.1%. With COc1ccc(C(=O)N2CCC[C@@]3(CCN(Cc4ccccc4OC)C3)C2)cc1 the “activity change, negative = inhibition” value was inactive: -1.61%. With O=C(NC1CCCCC1)C(c1ccccc1F)N(Cc1ccco1)C(=O)Cn1nnc2ccccc21 (centres undefined) the “activity change, negative = inhibition” value was inactive: -4.86%. In the case of Cc1cccc2cc(CN(Cc3nnnn3Cc3ccco3)C3CCCC3)c3nnnn3c12, the “activity change, negative = inhibition” value is reported as inactive: -1.02%. For CC(=O)NCCNc1nc(-c2cccc(NS(C)(=O)=O)c2)nc2ccccc12, the “activity change, negative = inhibition” value was inactive: -4.12%. With CCCCC(=O)NC1(C(F)(F)F)C(=O)N(Cc2ccco2)C(C)=C1C(=O)OC (centres undefined) the “activity change, negative = inhibition” value was inactive: -5.9%. COc1ccc2nc3c(cc2c1)c(NC(=O)c1cccs1)nn3CC(C)C was tested, and the Potency was active: 25.1 µM [activator]. C=CCn1c(Cc2csc(N)n2)nnc1SCc1ccc(C(=O)OC)cc1 was tested, and the Potency was inconclusive: 31.6 µM [inhibitor, single point]. With COc1cccc(OC)c1-c1nn2c(-c3cc(-c4ccccc4)n[nH]3)nnc2s1 the “activity change, negative = inhibition” value was inactive: -8.47%. In the case of CCSC1=N/C(=C\c2ccc3c(c2)OCO3)C(=O)S1, the Potency is reported as inconclusive: 31.6 µM [activator, single point]. With Cc1cccc(N2CCN(C(=O)Cn3cccc3)CC2)c1C the activity change, negative = inhibition was inconclusive: 2.17%. In the case of CC1Cc2ccccc2N1C(=O)c1cc2c(=O)n3ccccc3nc2n1C (centres undefined), the “activity change, negative = inhibition” value is reported as inactive: 1.94%. For CCOC(=O)c1ccc(NC(=O)NCc2ccn(CC)n2)cc1, the “activity change, negative = inhibition” value was inactive: -2.6%. In the case of CC1CCN(C(=S)c2ccccc2O)CC1, the activity change, negative = inhibition is reported as inconclusive: 41.5%. With CS(=O)(=O)N(CCc1ccccc1)CC(=O)Nc1ccc2c(c1)OCO2 the activity change, negative = inhibition was inconclusive: 30%. CCOc1ccc2nc(N3CCOCC3)nc(C)c2c1 was tested, and the Potency was inconclusive: 20 µM [activator, single point]. With O=c1c(O)c(-c2cc(O)c(O)c(O)c2)oc2cc(O)cc(O)c12 the Potency was inconclusive: 10 µM [inhibitor, partial curve]. With COC(=O)CSCc1nc2ccccc2[nH]c1=O the activity change, negative = inhibition was inconclusive: 39.9% [at 2.3 µM]. With O=S(=O)(c1cccs1)N1CCN(Cc2nc3ccccc3s2)CC1 the “activity change, negative = inhibition” value was inactive: 0.388%. In the case of CCN(CC)S(=O)(=O)c1cc(Br)c(C)cc1OC, the “activity change, negative = inhibition” value is reported as inactive: 15.2%. With Cc1nc(N2CCC(C)CC2)c2oc3ccccc3c2n1 the “activity change, negative = inhibition” value was inactive: 6.45%. In the case of Cc1cc(C2N=C(N)Nc3nc4ccccc4n32)c(C)n1-c1ccccc1Cl (centres undefined), the “activity change, negative = inhibition” value is reported as inactive: -12.4%. For O=C1NC2=C(C(=O)CCC2)C(c2ccc3ncccc3c2)N1 (centres undefined), the activity change, negative = inhibition was inconclusive: 46%. With CCCCNC(=O)c1cc2c(-c3ccc(Cl)cc3)nn(C)c2s1 the activity change, negative = inhibition was inactive: -1.3% [at 2.3 µM]. O=C(O)CCNc1ccccc1C(=O)O was tested, and the activity change, negative = inhibition was inactive: -2.37% [at 11 µM]. CC(C)C[C@@H](CC(=O)N[C@@H](CCC(=O)O)CC(=O)O)NC(=O)[C@@H]1CCCC[C@H]1NC(=O)C[C@@H](NC(=O)C[C@H](Cc1c[nH]c2ccccc12)NC(=O)[C@@H]1CCCC[C@H]1N)C(C)C was tested, and the Potency was active: 5.01 µM. With COc1cc(Sc2ccc(C)cc2)c(OC)cc1N the Potency was inconclusive: 25.1 µM [inhibitor, partial curve]. With O=C(NCC1COc2ccccc2O1)C1CCCN(S(=O)(=O)c2cccc3nsnc23)C1 (centres undefined) the activity change, negative = inhibition was inconclusive: 32.8%. In the case of NC(=O)c1ccc(-c2ncc(-c3ccccc3)o2)cc1, the activity change, negative = inhibition is reported as inconclusive: 38%. With CCC(=O)N1CCCc2cc(S(=O)(=O)N3CCN(C4CCCCC4)CC3)ccc21 the activity change, negative = inhibition was inconclusive: 40.8%. In the case of O=C(Nc1ccc(Nc2ccccc2)cc1)c1ccc(Br)o1, the “activity change, negative = inhibition” value is reported as inactive: -16.9%. In the case of CC1(C)CC(=O)c2cc(OCC(=O)NCc3cccnc3)ccc2O1, the activity change, negative = inhibition is reported as inconclusive: 61.8%. COC(=O)c1ccccc1NC(=O)C12CCC(C)(C(=O)O1)C2(C)C (centres undefined) was tested, and the activity change, negative = inhibition was inconclusive: 58.7%. For Cc1ccc(-c2nc3c(=O)n(C)c4ccccc4c3o2)cc1, the “activity change, negative = inhibition” value was inactive: 4.21%. Cc1cc2ccc(C)c(C)c2nc1SCC#N was tested, and the Potency was inconclusive: 20 µM [activator, partial curve]. With C[C@@](N)(Cc1ccc(O)cc1)C(=O)O the activity change, negative = inhibition was inconclusive: 63.3%. For O=C(c1ccccc1)N1CCN(S(=O)(=O)N2CCCCC2)CC1, the activity change, negative = inhibition was inconclusive: 51.6%. For O=Nc1c(-c2c(O)[nH]c3ccccc23)[nH]c2ccccc12, the Potency was active: 12.6 µM and inconclusive: 10 µM [inhibitor, partial curve]. For CC1CCN(CC(=O)Nc2sc3c(c2C#N)CCC3)CC1, the activity change, negative = inhibition was inconclusive: 40.7%.
